This is one part of the list. These are raw signals, not scaled to a control.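 Primary screen: polymyxin B was added at a level permeabilizing Salmonella outer membranes while sparing inner membranes. DMSO wells, both with and without polymyxin B, established maximum growth. Plate-to-plate variation meant each plate was ranked on its own, and the lowest-OD600 compounds were selected as hits.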
System: Salmonella enterica serovar Typhimurium SL1344
Assay: bacterial growth OD600 after 18 h with compound and polymyxin B; higher = more bacterial growth (less inhibition)
Details: 50 µM, Mueller-Hinton broth

| Compound | bacterial growth OD600 (polymyxin B 0.75 µg/mL) | bacterial growth OD600 (polymyxin B 1 µg/mL) |
| --- | --- | --- |
| COc1ccc(CC2(CCC(=O)NCc3nc4cc(C(F)(F)F)ccc4n3C)CCC(=O)N2)cc1 (centres undefined) | 0.82 |  |
| COc1ccc(S(=O)(=O)NCC2CCCN(Cc3cccc(C)n3)C2)cc1 (centres undefined) |  | 0.908 |
| CC(C)N(Cc1cn(C)nc1-c1ccc2c(c1)OCCO2)Cc1nccn1C |  | 0.624 |
| O=C(CCn1cnc2ccccc21)NC1CCCN(C2Cc3ccccc3C2)C1 (centres undefined) |  | 0.992 |
| CCN(CC1CCCN(CCc2cccc(F)c2)C1)C(C)=O (centres undefined) |  | 0.925 |
| COC(=O)c1cc(CNC(=O)Cc2ccccc2C)cc(NC(=O)c2ccco2)c1 | 0.741 |  |
| COCc1c(C(=O)NCCN2CCOCC2)cnn1-c1ncc2c(n1)-c1ccccc1CCC2 | 0.841 |  |
| COc1cccc(-c2cnc(-c3ccncc3)nc2C2CCN(Cc3cc(OC)ccc3OC)CC2)c1 | 0.98 |  |
| CC(C)C(CO)NC(=O)C1(N2CCCCC2)Cc2ccccc2C1 (centres undefined) | 0.587 |  |

At a glance, some entries already given:

| Compound | bacterial growth OD600 (polymyxin B 0.75 µg/mL) | bacterial growth OD600 (polymyxin B 1 µg/mL) |
| --- | --- | --- |
| COc1ccc(S(=O)(=O)NCC2CCCN(Cc3cccc(C)n3)C2)cc1 (centres undefined) |  | 0.908 |
| CC(C)N(Cc1cn(C)nc1-c1ccc2c(c1)OCCO2)Cc1nccn1C |  | 0.624 |

Reference: the supplement of paper PMC12889115
